Reference: US11759480B2, “Compositions and methods for CAR T cell therapy” (ENDOCYTE, INC., priority 2017, dated 2023)
For part of these data: At least one compound was matched to its structure with a doubt left. Some of these results come from one statement about several compounds together.

What was measured:
anti-FITC CAR T cells [1] = test: IFN-gamma production ELISA, CAR T cells co-incubated with MDA-MB-231 cells and FITC-Folate; assay type: cell-based, Human; conditions: 100 nM FITC-Folate, 24 hours
anti-FITC CAR T cells [2] = test: CD69 surface activation marker on CAR T cells by flow cytometry; assay type: cell-based, Human; conditions: 100 nM FITC-Folate, 24 hours
MDA-MB-231 tumors = test: Rescue ability of competitors during CAR T cell treatment (Example 23); assay type: in vivo, mice; conditions: EC17 continued
Experimental: When severe cytokine release syndrome was observed, one dose of EC0923 (folate) or untethered fluorescein (both at 10 μmoles/kg) was introduced intravenously to rescue mice (FIG. 16). Mice with one dose of EC0923 or fluorescein started to move and look for food after 4 hours, were active again in 24 hours, and looked normal in 4 days. EC17 administration was then continued. Control mice without EC0923 or fluorescein didn't move after 4 hours, and had to be euthanized because of the sickness. […] All mice tested for cytokine production were injected with 8 million CAR-T cells.

MDA-MB-231 cells = test: Control of CRS with bridge molecules in vivo (Example 43); set-up: species or system NSG mice; conditions: 6 hour time point
Experimental: Mice were maintained on folic acid-deficient diet (TD.95247, Envigo) in order to reduce the level of folic acid in mice to a physiological levels found in humans. Tumors were measured every other day with calipers, and tumor volume was calculated according to equation: Tumor volume=½(L×W^2) where L is the longest axis of the tumor and W is the axis perpendicular to L. Mouse blood was also collected to measure cytokine levels (e.g. IL-2, IL-6, IFNγ, and TNFα) using LEGENDplex bead-based immunoassay (Biolegend, CA) and systemic toxicity was monitored by measuring body weight loss. All animal care and use followed by National Institutes of Health (NIH) guidelines and all experimental protocols were approved by the Purdue Animal Care and Use Committee.

| SMILES | agent concentration at which IFN-gamma production was significantly inhibited (anti-FITC CAR T cells [1]) [nM] | agent concentration at which activated CAR T cells (CD69 positive) were decreased (anti-FITC CAR T cells [2]) [nM] | tumor outcome four weeks later (MDA-MB-231 tumors) | plasma IL-2, TNF-α, IL-6 (MDA-MB-231 cells) |
| --- | --- | --- | --- | --- |
| Cc1c(CN2CCN(C(=O)[C@H](C)O)CC2)sc2c(N3CCOCC3)nc(-c3cnc(N)nc3)nc12 [GDC0980] | > 10 | > 10 | – | – |
| Cc1nc(Nc2ncc(C(=O)Nc3c(C)cccc3Cl)s2)cc(N2CCN(CCO)CC2)n1 [dasatinib] | > 10 | > 10 | – | – |
| O=C1OC2(c3ccc(O)cc3Oc3cc(O)ccc32)c2ccccc21 [fluorescein, reference compound] | – | – | tumors were eliminated | diminished to nearly background levels |
